Experimental findings from publication PMC5449720, “Characterization of Bile Salt Hydrolase from Lactobacillus gasseri FR4 and Demonstration of Its Substrate Specificity and Inhibitory Mechanism Using Molecular Docking Analysis” (Frontiers in Microbiology, 2017) are described below.

Each structure is given as a SMILES string. Structures can show the parent of a compound that is named as a salt.

The data set concerns T1, LgBSH (bile salt hydrolase of Lactobacillus gasseri FR4).
T1 construct: gene bsh; 326-aa ORF (981 bp); tag kept; gene found via L. gasseri ATCC 33323 genome NC_008530.1; printed peptides LEISFGEH (20-27), LVDINFSKKLQLSPL (124-138)
The data set is described as follows: ninhydrin assay of released amino acid. In kind it is biochemical. The note with it: 5000 µM; 5 mM inhibitor; conjugated bile salt substrate not named for this test; standard assay 10 mM DTT, pH 6.0, 37 °C.
Take `CC1(C)S[C@@H]2[C@H](NC(=O)[C@H](N)c3ccccc3)C(=O)N2[C@H]1C(=O)O` [Ampicillin]: the “Inhibition %^a” value was 96.39%.
As to `O=C1O[C@H]([C@@H](O)CO)C(O)=C1O` [Ascorbic acid], the “Inhibition %^a” value was determined as 32.96%.
Consider `C[C@H]1c2cccc(O)c2C(O)=C2C(=O)[C@]3(O)C(O)=C(C(N)=O)C(=O)[C@@H](N(C)C)[C@@H]3[C@@H](O)[C@@H]21` [Doxycycline hydrochloride], for which the “Inhibition %^a” value is reported as 97.51%.
For `CC[C@H]1OC(=O)[C@H](C)[C@@H](O[C@H]2C[C@@](C)(OC)[C@@H](O)[C@H](C)O2)[C@H](C)[C@@H](O[C@@H]2O[C@H](C)C[C@H](N(C)C)[C@H]2O)[C@](C)(O)C[C@@H](C)C(=O)[C@H](C)[C@@H](O)[C@]1(C)O` [Erythromycin], the “Inhibition %^a” value was 41.62%.
Consider `CCC[C@@H]1C[C@@H](C(=O)N[C@@H]([C@H]2O[C@H](SC)[C@H](O)[C@@H](O)[C@H]2O)[C@@H](C)O)N(C)C1` [Lincomycin], for which the “Inhibition %^a” value stood at 18.58%.
`CN(C)[C@@H]1C(=O)C(C(N)=O)=C(O)[C@@]2(O)C(=O)C3=C(O)c4c(O)cccc4[C@@](C)(O)[C@H]3[C@H](O)[C@@H]12` [Oxytetracycline]: the “Inhibition %^a” value was 95.97%.
On to `CC1(C)S[C@@H]2[C@H](NC(=O)COc3ccccc3)C(=O)N2[C@H]1C(=O)O` [Penicillin V], for which the “Inhibition %^a” value is reported as 97.84%.
Turning to `Cc1cc2nc3c(=O)[nH]c(=O)nc-3n(C[C@H](O)[C@H](O)[C@H](O)CO)c2cc1C` [Riboflavin], the “Inhibition %^a” value was 98.31%.
